Experimental data as given in patent US20230220068A1 (CODIAK BIOSCIENCES, published 2023).

Molecular target: SIRPα (as used in the Octet analysis of FIGS. 3A-3C)
Assay: Octet, exosomes on SIRPα, all steps aligned by step baseline

binding: no binding
B1: PrX (protein, human, UniProt Q9P2B2 26-879, looked up)
scaffold on exosomes: VPTATLVRVVGTELVIPCNVSDYDGPSEQNFDWSFSSLGSSFVELASTWEVGFPAQLYQERLQRGEILLRRTANDAVELHIKNVQPSDQGHYKCSTPSTDATVQGNYEDTVQVKVLADSLHVGPSARPPPSLSLREGEPFELRCTAASASPLHTHLALLWEVHRGPARRSVLALTHEGRFHPGLGYEQRYHSGDVRLDTVGSDAYRLSVSRALSADQGSYRCIVSEWIAEQGNWQEIQEKAVEVATVVIQPSVLRAAVPKNVSVAEGKELDLTCNITTDRADDVRPEVTWSFSRMPDSTLPGSRVLARLDRDSLVHSSPHVALSHVDARSYHLLVRDVSKENSGYYYCHVSLWAPGHNRSWHKVAEAVSSPAGVGVTWLEPDYQVYLNASKVPGFADDPTELACRVVDTKSGEANVRFTVSWYYRMNRRSDNVVTSELLAVMDGDWTLKYGERSKQRAQDGDFIFSKEHTDTFNFRIQRTTEEDRGNYYCVVSAWTKQRNNSWVKSKDVFSKPVNIFWALEDSVLVVKARQPKPFFAAGNTFEMTCKVSSKNIKSPRYSVLIMAEKPVGDLSSPNETKYIISLDQDSVVKLENWTDASRVDGVVLEKVQEDEFRYRMYQTQVSDAGLYRCMVTAWSPVRGSLWREAATSLSNPIEIDFQTSGPIFNASVHSDTPSVIRGDLIKLFCIITVEGAALDPDDMAFDVSWFAVHSFGLDKAPVLLSSLDRKGIVTTSRRDWKSDLSLERVSVLEFLLQVHGSEDQDFGNYYCSVTPWVKSPTGSWQKEAEIHSKPVFITVKMDVLNAFKYPLLIGVGLSTVIGLLSCLIGYCSSHWCCKKEVQETRRERRRLMSMEMD

No constants are given. Whether binding was seen depends on the method and setting.
